The record followed here is patent publication US10030027B2, “Soluble guanylate cyclase stimulators” (MERCK SHARP & DOHME CORP., priority 2015, dated 2018).

The experiment concerns the target human recombinant sGC enzyme (Homo sapiens (Human), UniProt Q02108+Q02153). The experiment can be described thus: Size Exclusion Chromatography (SEC) competition binding assay using [3H] Ex-77B as the radioligand. The following applies: [3H] Ex-77B radioligand, 24 hours at 37° C. A general note: SEC sorts molecules by how far they enter the pores of the column.

SMILES strings stand for the structures. The structures given here were assigned with low confidence; some may be wrong.

By Ki is commonly meant a dissociation constant, usually derived from enzyme kinetics or from competition with a known ligand. With `CC1(C2CCC(CCC(=O)O)CC2)C(=O)Nc2nc(-c3nn(Cc4cccc(F)c4)c4cc(Cl)ccc34)nc(N)c21` (single isomer, unassigned) [263BA], the Ki is 0.127 nM.
